Experimental data as given in US20240374719A1.
No constants are given. Whether binding was seen depends on the method and setting. Some binding calls cover weakened binding; strength is not graded here.

Protein sequences, listed by entry. Tags and fused reporters are not part of them. Lines headed by an entry give the natural chain unless they say otherwise; changes in a name come on top. Chains listed by the source or under a name are the forms on record and can include a tag or linker.
cmCTLA-4 (G7PL88, form named): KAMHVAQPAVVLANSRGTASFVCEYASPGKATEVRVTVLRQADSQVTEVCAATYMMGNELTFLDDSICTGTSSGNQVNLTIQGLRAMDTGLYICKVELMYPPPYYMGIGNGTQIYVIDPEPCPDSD

Biological target: cmCTLA-4 (Macaca fascicularis) (UniProt G7PL88)
Test: ELISA, luminescence: antigen coated, antibody titrated [contd.) E]

binding: binds
B1: 4-E03 hIgG1 (anti-human CTLA-4, human IgG1) (antibody, V domains shown)
VH: EVQLLESGGGLVQPGGSLRLSCAASGFTFSDYYMSWVRQAPGKGLEWVSGISWSSRDKGYADSVKGRFTISRDNSKNTLYLQMNSLRAEDTAVYYCTTDLARYWGQGTLVTVSS
VL: QSVLTQPPSASGTPGQRVTISCTGSSSNIGAGYDVHWYQQLPGTAPKLLIYGNDNRPSGVPDRFSGSKSGTSASLAISGLRSEDEADYYCAVWDDSLNGVVFGGGTKLTVLG
